Among the data in PMC5833446 are binding values, retold here.

By UniProt entry, the sequences of proteins in these tests, tags left out.
UniProt P19338: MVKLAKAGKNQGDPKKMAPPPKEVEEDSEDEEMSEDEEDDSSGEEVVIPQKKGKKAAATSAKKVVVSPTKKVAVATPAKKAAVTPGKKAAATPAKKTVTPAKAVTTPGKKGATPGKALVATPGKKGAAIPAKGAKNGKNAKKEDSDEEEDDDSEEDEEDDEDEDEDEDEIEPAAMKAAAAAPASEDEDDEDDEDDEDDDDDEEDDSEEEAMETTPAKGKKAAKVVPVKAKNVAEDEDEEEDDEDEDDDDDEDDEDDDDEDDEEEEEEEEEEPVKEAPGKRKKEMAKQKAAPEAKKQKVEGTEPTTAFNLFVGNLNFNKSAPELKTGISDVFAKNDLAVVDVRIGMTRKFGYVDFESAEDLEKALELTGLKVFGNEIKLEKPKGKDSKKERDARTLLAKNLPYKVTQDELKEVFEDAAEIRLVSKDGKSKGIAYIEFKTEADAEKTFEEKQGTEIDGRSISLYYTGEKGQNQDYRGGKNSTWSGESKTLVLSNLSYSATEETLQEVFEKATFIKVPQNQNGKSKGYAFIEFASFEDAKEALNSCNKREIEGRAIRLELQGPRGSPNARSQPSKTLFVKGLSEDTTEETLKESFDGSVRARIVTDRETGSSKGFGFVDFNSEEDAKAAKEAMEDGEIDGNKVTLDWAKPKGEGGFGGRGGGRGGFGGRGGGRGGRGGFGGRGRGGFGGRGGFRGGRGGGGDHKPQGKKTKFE

Results are given in words; binding and its absence hold for the method and conditions named. Binding seen in cells or lysates may run through a third protein. Some results given as binding are weak or reduced against the parent protein; the word gives no strength.

The target of test [1] is nucleolin (human (endogenous in SKBR3)) (UniProt P19338). As to the kind of experiment: proximity ligation; fixed SKBR3 or MDCK cells, rabbit anti-ErbB2 and mouse anti-nucleolin antibodies, Duolink In-Situ PLA; cells untreated or treated with GroA or tyrphostin AG-825 for 2 days.
Test [2] shares this target. In words: co-IP; nucleolin pulldown (antibodies coupled to anti-IgG agarose beads) from lysates of dissected SKBR3-GFP tumor xenografts, ErbB2 detected by blot; mice untreated or treated with GroA; control pulldown background subtracted.

Consider “ErbB2 (from UniProt P04626 23-1255) (receptor)”, for which the binding entry in test [1] and in test [2] was “binds” throughout.
